From PubChem BioAssay AID1347076 (National Center for Advancing Translational Sciences (NCATS), 2019)
The whole screen tested about 400,000 compounds, of which about 13,000 (3.2%) were called active. Inconclusive means that the source gave no clear call. Such entries were picked first, then a sample of the others. The call rests on the fitted dose curve; in most records, active means well fitted cell-killing curve with a large enough effect; inconclusive means small, poorly fitted or top-dose-only effect, or effect the other way; inactive means flat fitted curve, though single readings scatter. Potencies of inconclusive entries are doubtful fits and often do not repeat.

Assay: qHTS assay for MDR1-selective chemotherapeutics: Primary screen using the drug-selected MDR subline cells KB-V1; further: nearly all actives have a fitted effect of over 60% in size
Conditions: KB-V1 MDR cells viability, CellTiter-Glo, 72 h; activity change, negative = cytotoxicity: at 46.1 µM (top of the series)
Outline: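 Cells of the MDR subline KB-V1 are plated, dosed with compound at multiple concentrations, and incubated 72 h at 37 degrees C; CellTiter-Glo is then added and luminescence read after 10 min.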
On the % scale 0 is the no-effect control and ±100 the full control effect; potency means the concentration at half of the fitted maximal effect.

Compound	Potency	activity change, negative = cytotoxicity
CCOc1ccccc1NCc1nnc(-c2ccccc2)o1	inconclusive: 25.9 µM [cytotoxic, single point]	–
COc1cccc(NC(=O)c2oc3ccccc3c2NC(=O)c2ccc(C(F)(F)F)cc2)c1	–	inactive: 4.32%
O=C(Oc1cccc2c(O)cccc12)c1ccco1	–	inactive: -1.89%
Cc1ccccc1C(=O)c1cccn1CC(=O)O	inconclusive: 25.9 µM [rising, single point]	–
CSCCC(NS(=O)(=O)c1ccccc1F)C(=O)NCc1cccs1 (stereo not given)	–	inactive: -14.8%
CC(=O)CC(=O)NC(=NC1CCCCC1)Nc1nc(C)cc(C)n1	inconclusive: 14.6 µM [cytotoxic, partial curve]	–
CCOC(=O)c1c(C)[nH]c(C)c1S(=O)(=O)N1CCC(C(=O)N2CCN(c3ccc(Cl)cc3)CC2)CC1	inconclusive: 29.1 µM [rising, partial curve, poor fit]	–
CCCN1C(=O)C(Cc2nc3ccccc3c(=O)n2-c2ccccc2)c2ccccc21 (stereo not given)	inconclusive: 29.1 µM [cytotoxic, single point]	–
CCCCCOP(=O)(OCCCCC)C1(NS(=O)(=O)c2ccccc2)C=CC(=O)c2ccccc21 (stereo not given)	–	inactive: -0.384%
Cc1cc(C)c(NC(=O)CN(C)CC(=O)Nc2cccc(S(=O)(=O)N(C)c3ccccc3)c2)c(C)c1	inconclusive: 2.31 µM [rising, partial curve]	–
CC(C)CC(=O)NC(=S)NCCc1ccccc1	–	inactive: -12.2%
CC1=C(C(=O)OC(C)C)C(c2ccc(Br)s2)NC(=O)N1C (stereo not given)	inconclusive: 8.2 µM [cytotoxic, partial curve]	–
CCOc1ccc(CN(C(=O)c2oc3cc(C)ccc3c2C)C2CCS(=O)(=O)C2)cc1 (stereo not given)	inconclusive: 16.4 µM [cytotoxic, single point]	–
Cc1ccc(C)c(SCC(=O)OCC(=O)Nc2ncc(C(F)(F)F)cc2Cl)c1	–	inactive: -7.36%
CCOc1ccc(NC(=O)N2CC=C(c3c[nH]c4ccccc34)CC2)cc1	inconclusive: 9.2 µM [cytotoxic, partial curve, poor fit]	–
NS(=O)(=O)c1ccc(NC(=S)N2CCN(c3ccccc3Cl)CC2)cc1	inconclusive: 29.1 µM [cytotoxic, single point]	–
COC(=O)c1ccc(COc2ccccc2/C=C(\C#N)C(=O)Nc2ccc(C)cc2)cc1	–	inactive: -4.99%
CCOC(=O)c1cc([N+](=O)[O-])sc1NC(=O)c1ccc(S(=O)(=O)N2CC3(C)CC2CC(C)(C)C3)cc1 (stereo not given)	inconclusive: 1.84 µM [cytotoxic, full curve, poor fit]	–
Cc1ccc(S(=O)(=O)Cc2ccc(C(=O)N3CCN(c4ccc(F)cc4)CC3)o2)cc1	inconclusive: 9.2 µM [cytotoxic, partial curve, poor fit]	–
COC(=O)c1ccc(Nc2nnc(-c3ccc(C)c(S(=O)(=O)NCC4CCCO4)c3)c3ccccc23)cc1 (stereo not given)	–	inactive: -14.6%
CSc1nc(C(=O)N2CCc3c([nH]c4ccccc34)C2c2ccccn2)cs1 (stereo not given)	–	inactive: -13.8%
O=S(=O)(c1ccccc1)N(Cc1ccccc1)c1ccccn1	active: 8.2 µM	–
C[C@]12CC[C@@H]3c4ccc(O)cc4CC[C@H]3[C@@H]1CCC2=O	inconclusive: 20.6 µM [cytotoxic, single point]	–
COc1ccc(C2=CC(=O)OC(C)(c3ccccc3)O2)cc1 (stereo not given)	active: 16.4 µM	–

Retrieved by compound from the entries so far, 4 records:
Compound	Potency	activity change, negative = cytotoxicity
CCOc1ccc(CN(C(=O)c2oc3cc(C)ccc3c2C)C2CCS(=O)(=O)C2)cc1 (stereo not given)	inconclusive: 16.4 µM [cytotoxic, single point]	–
CCOC(=O)c1cc([N+](=O)[O-])sc1NC(=O)c1ccc(S(=O)(=O)N2CC3(C)CC2CC(C)(C)C3)cc1 (stereo not given)	inconclusive: 1.84 µM [cytotoxic, full curve, poor fit]	–
CC(=O)CC(=O)NC(=NC1CCCCC1)Nc1nc(C)cc(C)n1	inconclusive: 14.6 µM [cytotoxic, partial curve]	–
C[C@]12CC[C@@H]3c4ccc(O)cc4CC[C@H]3[C@@H]1CCC2=O	inconclusive: 20.6 µM [cytotoxic, single point]	–

(next part)

Compound	Potency	activity change, negative = cytotoxicity
Cc1cc(NC(=O)CSc2ncnc3ccccc23)no1	–	inactive: 9.88%
Cc1nn(Cc2c(Cl)cccc2Cl)c(C)c1C(=O)NCc1ccc(C)n1C	–	inactive: -5.47%
Cc1ccc(C)c(N2CCN(C(=O)CN3CCSc4ccc(S(=O)(=O)N(C)C)cc43)CC2)c1	inconclusive: 9.2 µM [cytotoxic, partial curve]	–
O=C(c1c(F)cccc1F)N1CCN(c2ccccc2F)CC1	inconclusive: 25.9 µM [cytotoxic, partial curve, poor fit]	–
CCn1c(C)cc(C(=O)CSc2nnnn2C2CCCC2)c1C	active: 9.2 µM	–
COc1cccc(NC(=O)/C(C#N)=C\c2cn(Cc3ccc(C)cc3)c3ccccc23)c1	inconclusive: 20.6 µM [cytotoxic, single point]	–
CC(=O)Cn1cnc2c(cnn2-c2ccccc2)c1=O	–	inactive: 2.75%
COCCn1c(N)c(C(=O)c2cccc(S(=O)(=O)N3CCCCCC3)c2)c(=O)[nH]c1=O	inconclusive: 29.1 µM [rising, single point]	–
COc1ccc([N+](=O)[O-])cc1NC(=O)COC(=O)Cc1cc(OC)c(OC)c(OC)c1	inconclusive: 5.17 µM [cytotoxic, partial curve, poor fit]	–
O=C(c1cnccn1)N1CCc2ccccc21	inconclusive: 23.1 µM [rising, single point]	–
COc1ccccc1CNc1ccc(-c2nc(C)no2)cc1[N+](=O)[O-]	inconclusive: 29.1 µM [cytotoxic, single point]	–
Cc1ccc(NS(=O)(=O)Cc2ccccc2)cc1Cl	–	inactive: 0.771%
COC(=O)c1c(-c2ccc(S(C)(=O)=O)cc2)sc2cc(OC)ccc12	inconclusive: 13 µM [rising, single point]	–
C=CCN1C(=O)c2ccc(C(=O)N(CC(C)C)c3c(N)n(CCCC)c(=O)[nH]c3=O)cc2C1=O	inconclusive: 18.4 µM [rising, partial curve, poor fit]	–
O=C(Nc1nnc(-c2ccccc2)o1)c1cc(Cl)sc1Cl	–	inactive: -1.97%
CCOC(=O)C(CC)Sc1cc(C)nc2ccc(OC)cc12 (stereo not given)	inconclusive: 16.4 µM [cytotoxic, single point]	–
CCCc1c(C)nn(C(=O)/C(C#N)=N/Nc2ccccc2[N+](=O)[O-])c1C	inconclusive: 29.1 µM [rising, single point]	–
CN(CCOc1ccccc1)CC(O)COCc1ccccc1F (stereo not given)	–	inactive: 10.1%
CCS(=O)(=O)c1nc(S(=O)(=O)c2ccc(Cl)cc2)c(N2CCc3ccccc3C2)s1	inconclusive: 5.8 µM [cytotoxic, full curve]	–
CC1=C(C(=O)Nc2ccc([N+](=O)[O-])cc2)C(c2cccc(C(F)(F)F)c2)NC(=S)N1c1ccccc1 (stereo not given)	inconclusive: 18.4 µM [cytotoxic, single point]	–
COCc1nnc(NC(=O)CCCCCN2C(=O)c3ccccc3C2=O)s1	inconclusive: 20.6 µM [cytotoxic, single point]	–
O=C(NC(NCC1CCCO1)C(Cl)(Cl)Cl)c1cccc2ccccc12 (stereo not given)	inconclusive: 11.6 µM [cytotoxic, partial curve, poor fit]	–
O=C(O)CN1C(=O)/C(=C\C(Br)=C\c2ccccc2)SC1=S	inconclusive: 9.2 µM [rising, partial curve]	–
O=C1NC(c2cccc3ccccc23)Nc2ccccc21 (stereo not given)	active: 0.651 µM	–

Compound	Potency	activity change, negative = cytotoxicity
CC1=C(C(=O)Nc2ccccc2C)C(c2ccncc2)n2nc(SCc3ccccc3)nc2N1 (stereo not given)	inconclusive: 7.31 µM [rising, partial curve]	–
CC(NC(=O)c1ccc(OC2CCN(Cc3ccccn3)CC2)cc1)c1ccccc1 (stereo not given)	inconclusive: 2.59 µM [cytotoxic, partial curve]	–
Cn1c(N)c(C(=O)COc2ccc(C#N)cc2)c(=O)n(C)c1=O	–	inactive: -0.482%
CCCOc1cccc(-c2cc(C(=O)N/N=C/c3ccccn3)c3ccccc3n2)c1	inconclusive: 29.1 µM [cytotoxic, single point]	–
O=C(NCCCCCCNC(=O)c1cccs1)c1cccs1	inconclusive: 29.1 µM [cytotoxic, single point]	–
CC(Sc1nnc(COc2ccc([N+](=O)[O-])cc2)n1-c1ccccc1)C(=O)O (stereo not given)	inconclusive: 29.1 µM [rising, partial curve, poor fit]	–
CCOC(=O)c1c(N)n(-c2ccc(Cl)c(Cl)c2)c2nc3ccccc3nc12	inconclusive: 29.1 µM [rising, partial curve, poor fit]	–
CCN(C(=O)COC(=O)C1CCN(S(=O)(=O)c2cccs2)CC1)c1ccccc1	–	inactive: 0%
CC(O)C1CCC2C3CCC4CC(O)CCC4(C)C3C(=O)CC12C (stereo not given)	–	inactive: 0.488%
O=C(COC(=O)Cc1c(Cl)cccc1Cl)Nc1ccc(OC(F)(F)F)cc1	inconclusive: 18.4 µM [rising, single point]	–
COC(=O)c1ccccc1NC(=O)c1c(Br)cnn1C	inconclusive: 29.1 µM [cytotoxic, single point]	–
O=C(NC1CCCC1)C1CCC(CNS(=O)(=O)c2cccs2)CC1 (stereo not given)	–	inactive: -1.49%
Cc1noc(C)c1CSCC(=O)OCc1nnc(-c2ccc([N+](=O)[O-])cc2)o1	inconclusive: 23.1 µM [rising, single point]	–
COc1nc(N2CCCCCC2)nc(N2CCCCCC2)n1	active: 14.6 µM	–
Cn1c(=O)c2c(nc(Cc3ccccc3)n2C)n(C)c1=O	inconclusive: 23.1 µM [rising, single point]	–
O=C(COc1ccc(Cl)cc1)Nc1ncc([N+](=O)[O-])s1	active: 13 µM	–
CCOc1cc(C(=S)N2CCOCC2)ccc1OS(=O)(=O)c1ccccc1	active: 2.31 µM	–
Cc1cc(C)c(S(=O)(=O)N2CCCC(C(=O)NC3CCCC3)C2)c(C)c1 (stereo not given)	inconclusive: 16.4 µM [cytotoxic, single point]	–
O=C(COc1ccc(F)c(Cl)c1)Nc1ccc(N2CCOCC2)cc1	–	inactive: -1.86%
COc1cc(CCCN2C(=O)C(=O)NC[C@@H]2Cc2ccc(O)cc2)cc(OC)c1OC	inconclusive: 23.1 µM [rising, single point]	–
CC(C)C(=O)N1CCN(c2nc3ccc(Cl)cc3s2)CC1	inconclusive: 29.1 µM [cytotoxic, single point]	–
Cn1nccc1CNC(=O)c1c(Cl)cnn1C	–	inconclusive: -74.8%
